These are yes or no findings as the source states them, for the method shown. For some assays here: Binding can be weak; no strength is given.
T1: MUS-81 (C. elegans) (UniProt P91153)
T1 sequence: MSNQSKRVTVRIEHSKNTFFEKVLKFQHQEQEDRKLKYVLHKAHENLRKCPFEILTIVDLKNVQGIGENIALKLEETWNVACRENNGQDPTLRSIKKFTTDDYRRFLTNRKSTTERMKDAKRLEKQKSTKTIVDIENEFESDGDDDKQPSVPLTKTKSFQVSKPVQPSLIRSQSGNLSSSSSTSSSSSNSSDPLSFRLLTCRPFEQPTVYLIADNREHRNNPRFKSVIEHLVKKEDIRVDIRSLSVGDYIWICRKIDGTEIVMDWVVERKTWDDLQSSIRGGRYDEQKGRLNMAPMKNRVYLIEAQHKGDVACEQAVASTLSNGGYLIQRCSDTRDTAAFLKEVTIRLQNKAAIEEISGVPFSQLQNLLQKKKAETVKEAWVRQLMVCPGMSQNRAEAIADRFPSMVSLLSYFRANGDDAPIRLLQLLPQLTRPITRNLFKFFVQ

By UniProt entry, the sequences of proteins in these tests, tags left out. Where a name states a change or a piece, a line headed by the entry shows the natural chain unless it says otherwise.
UniProt Q22145: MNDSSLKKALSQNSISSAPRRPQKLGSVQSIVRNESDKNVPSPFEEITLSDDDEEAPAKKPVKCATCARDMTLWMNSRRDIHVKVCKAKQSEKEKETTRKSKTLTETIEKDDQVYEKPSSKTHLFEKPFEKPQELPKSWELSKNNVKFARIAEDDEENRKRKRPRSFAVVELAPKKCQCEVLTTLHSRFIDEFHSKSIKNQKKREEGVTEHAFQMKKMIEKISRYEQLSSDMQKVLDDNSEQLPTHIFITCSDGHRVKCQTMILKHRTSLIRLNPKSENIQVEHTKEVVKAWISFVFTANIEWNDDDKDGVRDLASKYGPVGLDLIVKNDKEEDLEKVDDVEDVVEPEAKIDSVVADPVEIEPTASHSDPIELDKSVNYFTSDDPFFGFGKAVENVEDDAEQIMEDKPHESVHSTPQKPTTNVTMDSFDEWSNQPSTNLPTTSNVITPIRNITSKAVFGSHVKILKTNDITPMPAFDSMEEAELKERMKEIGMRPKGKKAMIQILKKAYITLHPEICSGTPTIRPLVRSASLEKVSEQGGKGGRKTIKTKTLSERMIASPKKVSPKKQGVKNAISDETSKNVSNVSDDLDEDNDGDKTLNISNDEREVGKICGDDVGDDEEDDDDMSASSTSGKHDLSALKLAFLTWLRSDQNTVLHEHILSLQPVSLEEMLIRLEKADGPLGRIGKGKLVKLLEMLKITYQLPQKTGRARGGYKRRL

B1: GEN-1 (protein, UniProt Q22418 1-434)
chain: MTINGIWEWANHVVRKVPNETMRDKTLSIDGHIWLYESLKGCEAHHQQTPNSYLVTFFTRIQRLLELKIIPIVVFDNINASSSAHESKDQNEFVPRKRRSFGDSPFTNLVDHVYKTNALLTELGIKVIIAPGDGEAQCARLEDLGVTSGCITTDFDYFLFGGKNLYRFDFTAGTSSTACLHDIMHLSLGRMFMEKKVSRPHLISTAILLGCDYFQRGVQNIGIVSVFDILGEFGDDGNEEIDPHVILDRFASYVREEIPARSEDTQRKLRLRRKKYNFPVGFPNCDAVHNAITMYLRPPVSSEIPKIIPRAANFQQVAEIMMKECGWPATRTQKELALSIRRKVHLTTTVAQTRIPDFFAATKSKNFTPIVEPCESLEDYISANNTWMRKRKRSESPQILQHHAKRQVPDRKRSVKIRAFKPYPTDVIELGDSD

Key:
Assay in all cases: two-hybrid; matrix-based, all pair-wise combinations; Gal4 DB-X (pVV212) in MATalpha Y8930 mated with AD-Y (pVV213) in MATa Y8800; diploids scored by growth on SC-Leu-Trp-His plates at 30°C; vector alone as negative control
MUS-81 (C. elegans) = target: T1, MUS-81 (C. elegans)
XPF-1 (C. elegans) = XPF-1 (C. elegans) (UniProt G5EBZ1)
HIM-18 (C. elegans) = HIM-18 (C. elegans) (UniProt Q22145)
EME-1 (C. elegans) = target: EME-1 (C. elegans)
ERCC-1 (C. elegans) = ERCC-1 (C. elegans) (UniProt Q93456)

Molecule | binding (MUS-81 (C. elegans)) | binding (XPF-1 (C. elegans)) | binding (HIM-18 (C. elegans)) | other results
EME-1 (C. elegans) | binds | – | – | –
ERCC-1 (from UniProt Q93456) | – | binds | – | –
RAD-54 (C. elegans) | no binding | – | – | –
XPF-1 (from UniProt G5EBZ1) | – | – | binds | –
B1 | – | no binding | no binding | binding (EME-1 (C. elegans)): no binding; binding (ERCC-1 (C. elegans)): no binding

Reference: PMC3715419
